In patent EP3636320A1 one finds binding data, which are given here for one substance.

The chains behind the UniProt entries cited, without tags or fusion partners. Where a name states a change or a piece, a line headed by the entry shows the natural chain unless it says otherwise.
UniProt Q07011: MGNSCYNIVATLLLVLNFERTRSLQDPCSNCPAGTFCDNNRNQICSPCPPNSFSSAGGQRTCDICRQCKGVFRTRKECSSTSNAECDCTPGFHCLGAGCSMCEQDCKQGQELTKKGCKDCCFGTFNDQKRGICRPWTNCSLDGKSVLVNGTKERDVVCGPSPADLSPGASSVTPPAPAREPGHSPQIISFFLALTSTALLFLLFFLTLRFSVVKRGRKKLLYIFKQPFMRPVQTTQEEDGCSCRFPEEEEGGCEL
UniProt P41273: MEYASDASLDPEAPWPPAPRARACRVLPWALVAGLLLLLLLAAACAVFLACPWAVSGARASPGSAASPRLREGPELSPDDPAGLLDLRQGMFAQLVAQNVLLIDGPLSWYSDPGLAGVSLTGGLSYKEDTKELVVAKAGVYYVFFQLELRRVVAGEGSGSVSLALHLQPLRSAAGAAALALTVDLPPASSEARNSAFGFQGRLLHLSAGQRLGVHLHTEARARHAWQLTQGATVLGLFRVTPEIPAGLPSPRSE

No constants are given. Whether binding was seen depends on the method and setting. Some results given as binding are weak or reduced against the parent protein; the word gives no strength.

In this assay the target is human CD137 ECD (Peprotech, cat. 310-15-1MG) (human) (UniProt Q07011). Nature of the assay: flow cytometry; CD137L ECD-Fc captured on protein G beads, R-PE labelled CD137 ECD. For orientation: Flow cytometry measures light scatter and fluorescence of single cells or particles in a stream.

Take “CD137L ECD fused to the Fc part of a human IgG1 (from UniProt P41273 50-254) (Fc fusion)”: the binding result was “binds”.
